Results from one PubChem assay

The results are deposited in PubChem (AID1159506; NCATS, 2015).

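Genome-wide siRNA knockdown in TC32 Ewing sarcoma cells, comparing luciferase light from an NR0B1-promoter reporter with a CMV-promoter reporter 48 hours after transfection. Each siRNA was applied at 20 nM. A z-score of the log NR0B1-over-CMV signal, less the median of siRNAs with the same seed; more negative means a stronger specific loss of the NR0B1 reporter.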

This is part of the screen; most of the strongest results are not listed here. Sequences are the guide (antisense) strand, without overhang.

{"sirna": "UAAUCACGAAUACUCCUUC", "target gene": "DIS3L", "seed-corrected z-score": "0.4257"}
{"sirna": "UGCUGAAUUGCUAUUACCG", "target gene": "HEATR6", "seed-corrected z-score": "-1.323"}
{"sirna": "UAUUGAACACGUUUACGUC", "target gene": "ANXA1", "seed-corrected z-score": "-0.2953"}
{"sirna": "AAUCGUUUCCUAUUGUAUC", "target gene": "MRPL47", "seed-corrected z-score": "0.1907"}
{"sirna": "UUACGUUCACAUAAGUAGC", "target gene": "MET", "seed-corrected z-score": "0.6539"}
{"sirna": "AUAUGGGUUAUAUUCAGGG", "target gene": "ENAM", "seed-corrected z-score": "-0.9396"}
{"sirna": "UGAGUCUCCACAAACAUAG", "target gene": "STX2", "seed-corrected z-score": "-1.132"}
{"sirna": "UCUAGAAUUGGAGUGGGUC", "target gene": "TFAP2D", "seed-corrected z-score": "0.3552"}
{"sirna": "UUCGGUAAAAAUCAUACUC", "target gene": "EXOSC10", "seed-corrected z-score": "1.192"}
{"sirna": "UACUUAAUCAGGGUCACAG", "target gene": "CLEC17A", "seed-corrected z-score": "-0.3748"}
{"sirna": "UUGCGUGGAGUGAACAUCC", "target gene": "C14orf79", "seed-corrected z-score": "0.4412"}
{"sirna": "AAGGCGGAAACCAUCAUCC", "target gene": "C12orf43", "seed-corrected z-score": "-0.7103"}
{"sirna": "UUCAAAUCCAAGGUACUCC", "target gene": "REP15", "seed-corrected z-score": "0.716"}
{"sirna": "UUACUUUAUUGAAGCAUUU", "target gene": "DEFB128", "seed-corrected z-score": "0.8032"}
{"sirna": "AACCAUUUUGCUCAUGUCC", "target gene": "CT62", "seed-corrected z-score": "-0.5585"}
{"sirna": "AAUGUGACUACGGAGCCCG", "target gene": "NAALADL1", "seed-corrected z-score": "-1.096"}
{"sirna": "GAACGUGUGAAACUUGUUG", "target gene": "CALCA", "seed-corrected z-score": "-0.003069"}
{"sirna": "AAUAUAGAUGUUCUUCUCU", "target gene": "GPATCH11", "seed-corrected z-score": "0.3283"}
{"sirna": "UAAUUAUAAAACCGCAUGC", "target gene": "LYPLAL1-AS1", "seed-corrected z-score": "-0.364"}
{"sirna": "UAAGCAAAUGCUGGAGUCC", "target gene": "SCG5", "seed-corrected z-score": "0.5092"}
{"sirna": "UUCAUAAUGACCAAGCUGG", "target gene": "CYB561D2", "seed-corrected z-score": "0.6718"}
{"sirna": "AAGCUGUUACUAAAUUGUC", "target gene": "HIST2H3D", "seed-corrected z-score": "-1.338"}
{"sirna": "UUGAGCUCAAUCUUCACGC", "target gene": "BTBD6", "seed-corrected z-score": "1.878"}
{"sirna": "UUAGCAUGACCAACUGAGC", "target gene": "LRRC31", "seed-corrected z-score": "-0.4419"}
{"sirna": "UUUAUUUUCGUAUGCUUCC", "target gene": "SPANXN2", "seed-corrected z-score": "0.0666"}
{"sirna": "UAAACUUAUUGGUUGGACC", "target gene": "TMEM132C", "seed-corrected z-score": "-0.05592"}
{"sirna": "AAAGUCACUGUUGGAAUCU", "target gene": "PM20D1", "seed-corrected z-score": "0.8705"}
{"sirna": "GAGGUCCUGACUUUAAGGG", "target gene": "LINC01144", "seed-corrected z-score": "0.08524"}
{"sirna": "UUUACAACGAAACAUCGCC", "target gene": "AFF1", "seed-corrected z-score": "-0.1846"}
{"sirna": "UCGUCUCACAUUUAGAAGC", "target gene": "GCNT4", "seed-corrected z-score": "0.4405"}
{"sirna": "AAUUUGGUCAUAGAAAUUC", "target gene": "KDELR3", "seed-corrected z-score": "-0.3781"}

Some entries from above, unchanged:

* UGCUGAAUUGCUAUUACCG against HEATR6 : seed-corrected z-score -1.323
* UCGUCUCACAUUUAGAAGC against GCNT4 : seed-corrected z-score 0.4405
* UACUUAAUCAGGGUCACAG against CLEC17A : seed-corrected z-score -0.3748